# Measured values reported in article PMC8627557.
# Protein sequences, listed by entry. Tags and fused reporters are not part of them. Lines headed by an entry give the natural chain unless they say otherwise; changes in a name come on top.
# UniProt Q9H3S7: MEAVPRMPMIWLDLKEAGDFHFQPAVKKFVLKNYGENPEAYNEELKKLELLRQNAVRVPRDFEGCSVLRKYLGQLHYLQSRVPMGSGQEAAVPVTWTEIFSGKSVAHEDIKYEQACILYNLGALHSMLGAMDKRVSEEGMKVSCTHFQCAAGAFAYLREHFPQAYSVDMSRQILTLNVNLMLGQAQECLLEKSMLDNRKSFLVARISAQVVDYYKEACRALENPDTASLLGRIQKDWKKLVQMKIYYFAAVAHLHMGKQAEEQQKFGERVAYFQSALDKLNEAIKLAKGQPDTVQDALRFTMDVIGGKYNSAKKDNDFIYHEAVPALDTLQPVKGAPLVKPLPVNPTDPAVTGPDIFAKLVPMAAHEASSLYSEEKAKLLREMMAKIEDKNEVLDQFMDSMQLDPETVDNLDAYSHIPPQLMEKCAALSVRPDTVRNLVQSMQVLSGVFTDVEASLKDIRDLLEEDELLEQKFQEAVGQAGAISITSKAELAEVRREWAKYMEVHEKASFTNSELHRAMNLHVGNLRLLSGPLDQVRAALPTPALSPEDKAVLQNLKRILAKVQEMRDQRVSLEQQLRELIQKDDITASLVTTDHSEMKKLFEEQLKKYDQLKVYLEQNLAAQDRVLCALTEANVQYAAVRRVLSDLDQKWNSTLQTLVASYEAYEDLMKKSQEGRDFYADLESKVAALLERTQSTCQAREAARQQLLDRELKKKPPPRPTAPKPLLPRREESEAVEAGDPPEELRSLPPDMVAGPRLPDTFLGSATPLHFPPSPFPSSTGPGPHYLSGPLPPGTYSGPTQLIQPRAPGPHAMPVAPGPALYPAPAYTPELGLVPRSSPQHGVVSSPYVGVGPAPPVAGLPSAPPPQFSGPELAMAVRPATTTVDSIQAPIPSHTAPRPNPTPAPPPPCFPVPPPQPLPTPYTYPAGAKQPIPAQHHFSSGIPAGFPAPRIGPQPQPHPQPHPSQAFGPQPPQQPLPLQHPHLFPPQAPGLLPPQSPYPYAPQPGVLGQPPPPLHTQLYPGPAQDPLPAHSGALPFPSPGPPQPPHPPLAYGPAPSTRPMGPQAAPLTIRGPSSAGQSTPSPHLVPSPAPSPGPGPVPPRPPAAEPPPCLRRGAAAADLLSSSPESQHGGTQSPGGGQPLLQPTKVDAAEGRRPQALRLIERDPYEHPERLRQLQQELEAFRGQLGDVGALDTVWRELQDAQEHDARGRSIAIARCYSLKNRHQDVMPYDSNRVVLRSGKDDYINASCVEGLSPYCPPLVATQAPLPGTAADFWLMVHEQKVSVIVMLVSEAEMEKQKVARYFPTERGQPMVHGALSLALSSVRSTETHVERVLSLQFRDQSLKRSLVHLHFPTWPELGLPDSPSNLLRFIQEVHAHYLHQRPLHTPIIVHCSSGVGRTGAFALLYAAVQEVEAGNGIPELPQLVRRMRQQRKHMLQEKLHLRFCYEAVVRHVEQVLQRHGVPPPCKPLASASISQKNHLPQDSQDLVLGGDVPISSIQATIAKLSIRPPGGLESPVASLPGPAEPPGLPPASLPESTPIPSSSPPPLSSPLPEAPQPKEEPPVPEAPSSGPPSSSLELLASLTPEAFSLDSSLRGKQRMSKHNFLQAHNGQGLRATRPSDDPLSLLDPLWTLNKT
# UniProt Q15276: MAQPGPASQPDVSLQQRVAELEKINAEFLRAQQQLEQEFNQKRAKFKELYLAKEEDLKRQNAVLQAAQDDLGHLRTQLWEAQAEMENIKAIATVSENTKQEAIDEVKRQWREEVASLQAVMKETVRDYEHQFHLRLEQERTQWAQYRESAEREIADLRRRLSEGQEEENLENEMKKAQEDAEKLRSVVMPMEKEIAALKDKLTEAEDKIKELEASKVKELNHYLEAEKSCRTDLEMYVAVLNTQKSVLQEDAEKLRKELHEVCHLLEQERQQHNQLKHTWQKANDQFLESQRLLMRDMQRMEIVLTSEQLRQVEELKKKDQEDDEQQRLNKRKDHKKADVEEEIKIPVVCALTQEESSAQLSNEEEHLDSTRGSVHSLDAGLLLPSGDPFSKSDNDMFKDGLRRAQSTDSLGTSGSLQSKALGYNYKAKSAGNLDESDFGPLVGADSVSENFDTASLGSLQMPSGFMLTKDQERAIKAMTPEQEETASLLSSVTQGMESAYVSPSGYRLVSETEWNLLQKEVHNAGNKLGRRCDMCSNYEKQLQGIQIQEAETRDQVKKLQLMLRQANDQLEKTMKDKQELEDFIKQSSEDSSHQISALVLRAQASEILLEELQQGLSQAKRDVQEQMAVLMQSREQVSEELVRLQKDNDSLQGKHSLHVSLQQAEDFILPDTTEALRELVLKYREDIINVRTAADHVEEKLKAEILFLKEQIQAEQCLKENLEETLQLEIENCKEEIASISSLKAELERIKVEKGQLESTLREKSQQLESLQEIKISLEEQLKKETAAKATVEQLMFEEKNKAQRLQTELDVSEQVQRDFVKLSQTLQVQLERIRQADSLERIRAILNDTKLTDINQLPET
# Results are given in words; binding and its absence hold for the method and conditions named. Binding seen in cells or lysates may run through a third protein. Binding calls can cover weak binding; strength is not graded here.
# Molecular target: full-length HA–HD-PTP (human) (UniProt Q9H3S7)
# Assay: co-IP; lysates of HEK293T cells transfected with HA–HD-PTP constructs (with co-transfected GFP–Rabaptin-5 constructs, or endogenous Rabaptin-5); IP with anti-HA in IP buffer (25 mM Tris-HCl pH 7.5, 150 mM NaCl, 0.5% IGEPAL CA-630), 4°C; western blot
row,binding,Substance
1,binds,GFP–Rabaptin-5 ΔR5BD (from UniProt Q15276) (domain or fragment)
2,binds,GFP–Rabaptin-5 ΔCC2-1 (from UniProt Q15276)
3,binds,GFP–Rabaptin-5 CC2-1 (from UniProt Q15276) (domain or fragment)
